Assay results reported in PubChem BioAssay AID493014 (National Center for Advancing Translational Sciences (NCATS), 2011).
The other results are listed elsewhere or left out. Shown are side measurements of this screen, not its main read-out; they come without a call. Most of these compounds were active or inconclusive in the main read-out, so they are no random draw. The note in brackets gives the kind of curve behind each potency; many fits are weak.

Experiment: qHTS Assay to Find Inhibitors of Chronic Active B-Cell Receptor Signaling
Settings: ABC-DLBCL IkBa-CBG/CBR reporter, luminescence ratio (green luciferase fused to IkBa over red control in TMD8 lymphoma cells), 4 h
In short: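 Doxycycline induced both beetle luciferases in TMD8 lymphoma cells; IKK-driven degradation limits the IkappaBalpha-fused green signal, while red luminescence normalises for cell number and nonspecific effects. Compounds tested up to 46 uM, 4 hrs.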

[1] = measured here: CBR red luminescence, cell number
[2] = measured here: IkBa-CBG green luminescence

Structure (SMILES): CN(C(=O)COC(=O)c1ccc2c(=O)n3c(nc2c1)CCC3)c1ccccc1
- AC50 [1]: 8.2 µM [falling, partial curve, poor fit]

Structure (SMILES): COc1ccc(S(=O)(=O)Nc2ccc3c(c2)n(C)c(=O)n3C)cc1C
- AC50 [1]: 15.8 µM [rising, partial curve, poor fit]

Structure (SMILES): N=c1nc(-c2ccccc2)ccn1O
- AC50 [1]: 0.562 µM [falling, full curve, poor fit]

Structure (SMILES): COc1ccccc1OCC(=O)NNC(=O)c1cccs1
- AC50 [1]: 29.1 µM [falling, single point]

Structure (SMILES): Cc1sc(NC(=O)C2CSC3(C)CCC(=O)N23)nc1-c1ccc(F)cc1 (stereo not drawn)
- AC50 [1]: 15.8 µM [falling, partial curve]

Structure (SMILES): Cc1ccc(NC2CCCCC2NS(=O)(=O)c2ccc(Cl)cc2)cc1 (stereo not drawn)
- AC50 [1]: 8.2 µM [rising, partial curve]

Structure (SMILES): O=C(CSc1ccc(Br)c2cccc(Cl)c12)Nc1ccc(S(=O)(=O)Nc2nccs2)cc1
- AC50 [1]: 35.5 µM [falling, single point]

Structure (SMILES): O=c1n(CCCN2CCN(c3cccc(Cl)c3)CC2)nc2ccccn12
- AC50 [1]: 6.51 µM [rising, partial curve]

Structure (SMILES): O=C(Cc1nc2ccccc2[nH]c1=O)c1ccc(Cl)cc1
- AC50 [1]: 0.251 µM [falling, full curve, poor fit]

Structure (SMILES): CCNC(=O)Nc1nc2ccccc2s1
- AC50 [1]: 35.5 µM [falling, single point]

Structure (SMILES): COC(=O)c1ccc(S(=O)(=O)N2CCC(c3nc4ccccc4o3)CC2)cc1
- AC50 [1]: 29.1 µM [rising, single point]

Structure (SMILES): CSc1ccc(S(=O)(=O)NCC(=O)OCC(=O)N(Cc2ccccc2)C(C)C)cc1[N+](=O)[O-]
- AC50 [1]: 29.1 µM [falling, single point]

Structure (SMILES): COc1ccccc1-n1cnc2cc(C(=O)NCCCN3CCOCC3)ccc21
- AC50 [1]: 6.51 µM [rising, single point]

Structure (SMILES): CCOc1ccc(-c2noc(-c3ccncc3)n2)cc1OCC
- AC50 [1]: 0.0517 µM [rising, full curve, poor fit]

Structure (SMILES): COc1ccccc1CNC(=O)C(=O)NCCC1CCCCN1S(=O)(=O)c1cccs1 (stereo not drawn)
- AC50 [1]: 29.1 µM [falling, single point]

Structure (SMILES): COc1ccc(/C(O)=C2/C(=O)C(=O)N(Cc3cccnc3)C2c2ccccn2)cc1 (stereo not drawn)
- AC50 [1]: 18.4 µM [rising, partial curve]

Structure (SMILES): Cc1ccc(S(=O)OCC(=O)Nc2cc(Cl)ccc2N2CCOCC2)cc1 (stereo not drawn)
- AC50 [1]: 10 µM [falling, partial curve]

Structure (SMILES): O=C(Cc1cccs1)NCCSc1c(-c2ccc(Cl)cc2)[nH]c2ccccc12
- AC50 [1]: 29.1 µM [falling, single point]
- AC50 [2]: 20.6 µM [rising, single point]

Structure (SMILES): COC(=O)c1c(C(=O)OC)c(-c2ccc(C)cc2)n2c1CS(=O)C2 (stereo not drawn)
- AC50 [1]: 2.59 µM [rising, partial curve, poor fit]

Structure (SMILES): O=C(Nn1c(Cc2cccs2)nc2ccccc2c1=O)c1cccs1
- AC50 [1]: 20 µM [falling, partial curve, poor fit]

Structure (SMILES): O=C(NN=C1CCC(c2ccccc2)CC1)c1cc2c(s1)CCCC2 (stereo not drawn)
- AC50 [1]: 6.51 µM [falling, single point]
- AC50 [2]: 6.51 µM [rising, partial curve, poor fit]

Structure (SMILES): O=c1nc(N2CCCCCC2)nc(N2CCCCCC2)[nH]1
- AC50 [1]: 0.355 µM [rising, full curve, poor fit]

Structure (SMILES): Clc1ccc(Cn2nnc(-c3ccccc3)n2)cc1
- AC50 [1]: 20.6 µM [rising, single point]

Structure (SMILES): CC(C)(C)Cc1nc(-c2ccccn2)no1
- AC50 [1]: 5.17 µM [falling, partial curve]

Structure (SMILES): COc1ccc(OC)c(S(=O)(=O)N2CCC(C(=O)NC3CCCC3)CC2)c1
- AC50 [1]: 6.31 µM [rising, single point]

Structure (SMILES): CCOC(=O)CSc1nc2sc(C(=O)O)c(C)c2c(=O)[nH]1
- AC50 [1]: 16.4 µM [falling, partial curve]

Structure (SMILES): COc1cccc(C(=O)NCCS(=O)(=O)NCc2ccco2)c1
- AC50 [1]: 20.6 µM [falling, single point]

Structure (SMILES): COc1ccccc1NC(=O)CCC(=O)Nc1ccccc1OC
- AC50 [1]: 9.2 µM [falling, partial curve]

Structure (SMILES): CC(C)(O)c1cc2ccc(C#Cc3ccsc3)cc2c(=O)o1
- AC50 [1]: 29.1 µM [rising, single point]

Structure (SMILES): COc1ccc(CNc2cc(NCCCO)c([N+](=O)[O-])c3nonc23)cc1
- AC50 [1]: 7.94 µM [falling, partial curve, poor fit]

Structure (SMILES): CCN/N=C(\Cc1nc2ccccc2[nH]1)c1ccccc1
- AC50 [1]: 12.6 µM [falling, single point]

Structure (SMILES): CC1CCCN(c2ccc(C(=O)NCc3ccco3)cc2[N+](=O)[O-])C1 (stereo not drawn)
- AC50 [1]: 3.26 µM [rising, full curve]

Structure (SMILES): COc1ccc(N/N=C(/C(N)=O)C2=NC(C)(C)Cc3ccccc32)cc1
- AC50 [1]: 9.2 µM [falling, partial curve]

Structure (SMILES): CC(=O)Nc1ccc(NS(=O)(=O)c2cc(-c3n[nH]c(=O)c4ccccc34)ccc2C)cc1
- AC50 [2]: 15.8 µM [falling, partial curve]

Structure (SMILES): Cc1c(-c2cccc(Cl)c2)nc2ccccc2c1C(=O)OC/C(O)=C(\C#N)c1nc2ccccc2[nH]1
- AC50 [1]: 4.47 µM [falling, partial curve, poor fit]

Structure (SMILES): CN1CCN(C2OC(=O)c3ccccc32)CC1 (stereo not drawn)
- AC50 [1]: 29.1 µM [falling, single point]

Structure (SMILES): COc1cccc(/C=C/C(=O)OCC(=O)NCc2ccco2)c1OC
- AC50 [1]: 16.4 µM [rising, single point]

Structure (SMILES): Cc1ccc(NC(=O)C(=O)NCc2ccc(/C=N/NC(=O)c3c(C)nc4ccccn34)o2)cc1
- AC50 [1]: 0.461 µM [falling, full curve, poor fit]

Structure (SMILES): CCN(CC)S(=O)(=O)c1cccc(C(=O)Nc2ccc(S(=O)(=O)NC3=NCCCCC3)cc2)c1
- AC50 [1]: 10.3 µM [rising, partial curve, poor fit]

Structure (SMILES): CNC(=S)N(CCc1c(C)[nH]c2ccc(Cl)cc12)Cc1cc(OC)c(OC)c(OC)c1
- AC50 [1]: 14.6 µM [falling, single point]
- AC50 [2]: 29.1 µM [rising, single point]

Structure (SMILES): C=CC(=O)OCCOCCOCCOCCOC(=O)C=C
- AC50 [1]: 14.6 µM [falling, single point]

Structure (SMILES): O=C(c1ccc(F)cc1)C(CN1CCOCC1)c1ccccc1 (stereo not drawn)
- AC50 [1]: 14.1 µM [falling, partial curve, poor fit]

Structure (SMILES): OCCC1CN(Cc2ccc(Oc3ncccn3)cc2)CCN1C1CCCC1 (stereo not drawn)
- AC50 [1]: 35.5 µM [rising, single point]

Structure (SMILES): Cc1cc(C(=O)NN=C2CCCCC2)c2ccccc2n1
- AC50 [1]: 29.1 µM [rising, single point]

Structure (SMILES): O=C(CSc1ccccc1)N1CCc2ccccc21
- AC50 [1]: 6.51 µM [rising, single point]

Structure (SMILES): COc1ccc(OC)c(NC(=O)CCc2nnc3ccc(N4CCC(C)CC4)nn23)c1
- AC50 [1]: 0.631 µM [rising, full curve, poor fit]

Structure (SMILES): Cc1cc(O)c2/c(=N\N)c(-c3csc(C)n3)coc2c1
- AC50 [1]: 22.4 µM [falling, partial curve, poor fit]

Structure (SMILES): Cn1cccc1C(=O)NC(=O)COC(=O)c1ccccc1O
- AC50 [1]: 0.231 µM [rising, full curve, poor fit]

Structure (SMILES): CCOc1ccc2nc(NC(=O)CN3C(=O)C4CCCCC4C3=O)sc2c1 (stereo not drawn)
- AC50 [1]: 16.4 µM [falling, partial curve, poor fit]

Structure (SMILES): CCOc1ccc2nc(NC(=O)CSc3cn[nH]n3)sc2c1
- AC50 [2]: 12.6 µM [falling, partial curve, poor fit]

Structure (SMILES): O=C(CN1C(=O)CSc2ccccc21)Nc1ccc2c(c1)OCCO2
- AC50 [1]: 0.0411 µM [falling, full curve, poor fit]

Structure (SMILES): C=CCOc1ccc2ccccc2c1/C=N/O
- AC50 [1]: 4.11 µM [rising, full curve, poor fit]

Structure (SMILES): Cc1ccc(C(=O)NC(=S)Nc2ccc(-c3cc4ccccc4oc3=O)cc2)c(C)c1
- AC50 [1]: 0.00461 µM [rising, full curve, poor fit]

Structure (SMILES): Fc1ccc(-c2ccc(Nc3cccc(F)c3)nn2)cc1
- AC50 [1]: 7.94 µM [falling, partial curve, poor fit]

Structure (SMILES): CCN(CC(=O)NCc1cccs1)C(=O)c1ccc(-c2ccccc2F)o1
- AC50 [1]: 6.51 µM [rising, single point]

Structure (SMILES): Cc1noc(C)c1S(=O)(=O)Nc1ccc(C(=O)Nc2ccc(OC(F)(F)F)cc2)cc1
- AC50 [1]: 0.891 µM [falling, full curve, poor fit]

Structure (SMILES): CCCCNC(=O)c1ccc2c(OCC)n(CCCC)nc2c1
- AC50 [1]: 4.47 µM [rising, partial curve, poor fit]

Structure (SMILES): CCC(=O)Nc1cccc(-c2nnc(SCC(=O)c3ccccc3)n2C)c1
- AC50 [1]: 11.2 µM [falling, single point]
- AC50 [2]: 31.6 µM [falling, partial curve, poor fit]

Structure (SMILES): Cc1nc2nc(COc3ccccc3)[nH]n2c(=O)c1Cc1ccccc1
- AC50 [1]: 1.84 µM [falling, full curve]

Structure (SMILES): Cc1ccc(NCc2ccc(O)c3ncccc23)cc1
- AC50 [1]: 11.2 µM [falling, partial curve, poor fit]

Structure (SMILES): N#Cc1ccccc1OCC(=O)NC(=O)NCc1ccco1
- AC50 [1]: 0.794 µM [falling, full curve, poor fit]

Structure (SMILES): COc1cc(/C=C/C(=O)OCC(=O)NCc2ccccc2OC)ccc1O
- AC50 [1]: 16.4 µM [falling, single point]

Structure (SMILES): CC1Oc2ccccc2N(CC(=O)Nc2ccc3c(c2)OCCO3)C1=O (stereo not drawn)
- AC50 [1]: 3.55 µM [rising, single point]

Structure (SMILES): COc1ccc(C(=O)c2ccc(Br)cc2)cc1
- AC50 [1]: 0.398 µM [rising, full curve, poor fit]
